Library compounds against nucleic acid targets

Source: the ROBIN nucleic acid binder screens (doi:10.1002/anie.202211358).

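Each compound is printed as two spots on a slide made to bind it covalently, so it has no test concentration; the read-out is fluorescence of the bound, labelled oligonucleotide. The data file lists only calls. An earlier report of the laboratory on the PreQ1, TPP and SAM-II riboswitches (doi:10.1038/s41467-019-09493-3) used 1 µM RNA for 2 h and required a mean Z-score above 3 (spot signal-to-noise against the whole library), a score well above that on a control array, and duplicate spots agreeing (coefficient of variation under 100); it then also set aside compounds that hit other targets, which this list keeps. The cut-offs behind this list may differ. A missing hit is not proof of no binding, and a hit is not a measured affinity.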 A compound is marked Y if it was called a hit and N if it was screened but was not. The compounds are a random part of those screened. A dash means that no call is listed here.

Oligonucleotides screened, 5′ to 3′:
TPP: TPP riboswitch RNA three-way junction, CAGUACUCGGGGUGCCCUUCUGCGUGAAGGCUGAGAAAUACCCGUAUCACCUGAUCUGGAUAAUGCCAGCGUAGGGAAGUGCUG. Hit rate about 0.7% of about 24,000 compounds.
SAM-II: SAM-II riboswitch RNA pseudoknot, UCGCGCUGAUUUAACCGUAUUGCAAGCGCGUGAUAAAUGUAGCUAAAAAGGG. Hit rate about 1% of about 21,000 compounds.
PreQ1: PreQ1 riboswitch RNA pseudoknot, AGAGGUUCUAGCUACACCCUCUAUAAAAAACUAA. From B. subtilis. Hit rate about 0.7% of about 24,000 compounds.

| SMILES | TPP | SAM-II | PreQ1 |
|---|---|---|---|
| `Cl.OC12CC3CC(C1)CC(NCc1cccnc1)(C3)C2` | N | N | N |
| `COc1cccc(-c2ccc3c(N)c(C(=O)Nc4ccc(F)c(F)c4)sc3n2)c1` | N | N | N |
| `CCc1ccc(S(=O)(=O)N2CCN(c3cc(Nc4ccc(C)cc4)nc(C)n3)CC2)cc1` | N | - | N |
| `CCc1nnc2c(Nc3cc(C)ccc3OC)nc3ccccc3n12` | N | - | N |
| `CN(C(=O)c1cccc([N+](=O)[O-])c1)C1CCCCC1O` (stereo unspecified) | N | N | N |
| `OCc1ccc(CN2C[C@H]3C[C@H]4C[C@@H](C3)C[C@H]2C4)o1` | N | N | N |
| `CN(C)CCNc1oc(C=Cc2cccs2)nc1C#N` | N | - | N |
| `C#C[C@]1(O)CC[C@H]2[C@H]3CCc4cc(OC)ccc4[C@H]3CC[C@@]21C` | N | N | N |
| `COc1ccc(CNCCC(c2ccc(C)cc2)c2ccco2)cc1` (stereo unspecified) | N | N | N |
| `OC(c1nnc(S)n1-c1ccccc1)C(O)c1nnc(S)n1-c1ccccc1` (stereo unspecified) | N | N | N |
| `CCCNc1c(NS(=O)(=O)c2ccccc2Cl)c(=O)oc2ccccc12` | N | N | N |
| `CCOc1ccc(NC(=O)c2cc3ccccc3cc2O)cc1` | N | N | N |
| `CCc1ccc(NC(=O)c2sc3nc(C)cc(C)c3c2N)cc1` | N | N | N |
| `Cc1ccc(S(=O)(=O)Nc2nc3ccccc3nc2NCc2ccc(F)cc2)cc1` | N | N | N |
| `Cc1ccc(C)c(-n2c(-c3ccc(Br)cc3)cs/c2=N\C(=O)c2ccccc2F)c1` | N | N | N |
| `Cc1nnc2c3ccccc3nc(Nc3cccc(C(=O)O)c3)n12` | N | - | N |
| `Cc1ccccc1NCC(O)Cn1c(C)c(C)c2ccccc21` (stereo unspecified) | N | N | N |
| `COCCNC(=O)c1cccc(NC(=O)N2CCCCCC2CO)c1C` (stereo unspecified) | N | N | N |
| `Cn1c(=O)n(C)c2cc(CNC3CCC(=O)N(CC4CC4)CC3)ccc21` (stereo unspecified) | N | N | N |
| `Cc1cc(C)c2c(N)c(C(=O)c3cccc(Cl)c3)sc2n1` | N | N | N |
| `Cc1ccc(-c2cnn3c(NCc4cccnc4)cc(C)nc23)cc1` | N | - | N |
| `Cc1ccc(Nc2ccc(N)cc2S(=O)(=O)O)cc1` | N | N | N |
| `COc1c(OP2(=S)OCC(C)(C)CO2)cnn(C2CCCCC2)c1=O` | N | N | N |
| `CCOc1ccccc1Nc1ncnc2ccc(Br)cc12` | N | N | N |
| `Cc1ccc(Nc2c(O)[nH]cnc2=O)cc1C` | N | N | N |
| `Cc1ncsc1CCN(C)C(=O)c1ccc2c(c1)[nH]c(=O)n2[C@H]1CC[C@H](O)CC1` | N | N | N |
| `CC(C)Nc1nc(Cl)nc(NC(C)(C)CO)n1` | N | N | N |
| `CN(C)C(=O)OCC1COc2ccccc2O1` (stereo unspecified) | N | N | N |
| `Cc1ncc(-c2ccc(C)c(S(=O)(=O)NCC3(O)CCCNCC3)c2)o1` (stereo unspecified) | N | N | N |
| `Nc1nc(CCNC(=O)c2cnc(-c3ccccc3)nc2)cs1` | N | N | N |
| `CC(=O)O[C@H]1CC[C@@]2(C)[C@@H](CC[C@@H]3[C@@H]2CC(=O)[C@@]2(C)[C@H]3C[C@@H]3CC(C)=CC(=O)[C@@H]32)C1` | N | N | N |
| `Cc1cc(N2CCN(S(=O)(=O)c3ccc(Cl)cc3)CC2)nc(NC2CCCCC2)n1` | N | - | N |
| `COc1cc(C=Cc2nc(C#N)c(NCCN(C)C)o2)cc(OC)c1OC` | N | - | N |
| `O=C(Cn1ccccc1=O)N1CCC(Cc2cccc(CO)c2)C1` (stereo unspecified) | N | N | N |
| `CCc1cc2c3c(c1)C1(C(=O)N3C(C)(C)C=C2C)C(C#N)=C(N)OC2=C1C(=O)CCC2` (stereo unspecified) | N | N | N |
| `O=C1c2ccccc2C(Nc2ccc(Cl)cc2)N1c1ccccn1` (stereo unspecified) | N | N | N |
| `Cc1cccc(-c2[nH]c3c(C#N)cnn3c2NC2CCCCC2)c1` | N | - | N |
| `CC(C)Oc1ccc(OCCN[C@H]2CCCCNC2=O)cc1` | N | N | N |
| `N#CC1=C(N)N(c2ccccc2)C2=C(C(=O)OC2)C12C(=O)N(Cc1ccc(F)cc1)c1ccccc12` (stereo unspecified) | N | N | N |
| `Cc1ncc(CO)c(C=NNc2ccccc2)c1O` | N | N | N |
| `CN1CCN(Cc2cccnc2N)CC1C(=O)O` (stereo unspecified) | N | N | N |
| `CCOC(=O)c1sc2nc(CC)c3c(c2c1N)CC(C)(C)OC3` | N | N | N |
| `Nc1c(-c2nc(-c3ccccc3)no2)nnn1-c1ccccc1C(F)(F)F` | N | - | N |
| `Nc1ccc(-c2nc3ccccc3n2CCOc2ccccc2)cc1` | N | N | N |
| `CN(C)CCn1ccnc1C1CCN(C(=O)c2sccc2N)CC1` | N | N | N |
| `Cn1c(N2CCOCC2)nc2cc(C(=O)N3CC(O)CO3)ccc21` (stereo unspecified) | N | N | N |
| `Cn1ncc(N2CCC(CNC(=O)CN3CCCC(O)C3)CC2)cc1=O` (stereo unspecified) | N | N | N |
| `CCCCN(CCCC)CCC(O)c1cc2c(Cl)cc(Cl)cc2c2cc(C(F)(F)F)ccc12` (stereo unspecified) | N | Y | N |
| `CCC12CN3CC(CC)(CN(C1)C3c1cccc(N)c1)C2O` (stereo unspecified) | N | N | N |
| `Cc1nc2c(O)cccc2cc1CO` | N | N | N |
| `CCCc1n(CC(O)COCC2CC=CCC2)c2ccccc2[n+]1C` (stereo unspecified) | N | N | N |
| `CCCCCCNc1cc(-c2ccccc2)nc2nc(-c3cccnc3)nn12` | N | - | N |
| `O=C(c1ccc(C2CCCNC2)cc1)N1CCCN(c2ccc(F)cc2)CC1` (stereo unspecified) | N | N | N |
| `O=C([O-])Cc1ccccc1Nc1c(Cl)cccc1Cl` | N | N | N |
| `O=C(N[C@H](CO)[C@H](O)c1ccc([N+](=O)[O-])cc1)C(Cl)Cl` | N | N | N |
| `Cc1nc2ncnn2c(C)c1CCC(=O)NCc1cc2n(n1)CCCNC2` | N | N | N |
| `Nc1cccc(-c2nc3cc(C(=O)c4ccccc4)ccc3[nH]2)c1` | N | N | N |

5 of the entries, repeated:

SMILES,TPP,SAM-II,PreQ1
Cc1cccc(-c2[nH]c3c(C#N)cnn3c2NC2CCCCC2)c1,N,-,N
Cn1c(N2CCOCC2)nc2cc(C(=O)N3CC(O)CO3)ccc21 (stereo unspecified),N,N,N
CCOc1ccccc1Nc1ncnc2ccc(Br)cc12,N,N,N
Cc1ccc(Nc2c(O)[nH]cnc2=O)cc1C,N,N,N
CN(C(=O)c1cccc([N+](=O)[O-])c1)C1CCCCC1O (stereo unspecified),N,N,N